Taken from: PubChem BioAssay AID1053208 (Peter MacCallum Cancer Centre, 2014)
Here is a random part of about 17,000 reagents tested. 788 of them (4.7%) were called active. 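Calls rest on z-score classes alone; an extra cut-off of viability at most 70% of control was not applied to them.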 Further read-outs or replicates are left out here.

Assay: 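Synthetic lethal interactions between gene loss and doxorubicin in osteosarcoma cells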 (primary screen)
Cell system: mouse osteosarcoma cells, early-passage culture from an engineered mouse model of fibroblastic bone tumour
Knock-down reagent: siRNA pool against mouse genes, 40 nM
Timing: about 120 h (48 h before drug, then 72 h with drug)
Challenge: doxorubicin 100 nM for 72 h, roughly 30-40% inhibitory dose
Detection: 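Viability read as ATP luminescence after 72 h of 100 nM doxorubicin or none, duplicate wells averaged, scaled to non-targeting siRNA, then expressed as robust z-scores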
Direction: viability z-score with doxorubicin: higher = more viable cells under doxorubicin; viability z-score without drug: higher = more viable cells with knock-down alone
Rule for the call: 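Called active if knock-down leaves viability unchanged without drug (z within -2 to 2) but lowers it with doxorubicin (z at or under -2)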

gene	combined z-score class	viability z-score with doxorubicin	viability z-score without drug	outcome
Tmem25 (transmembrane protein 25)	no change with or without drug	0.67	-0.17	inactive
Adgb (androglobin)	no change with or without drug	0.45	0.67	inactive
Irgc (immunity related GTPase cinema)	no change with or without drug	0	1.35	inactive
Atg13 (autophagy related 13)	no change with or without drug	0.9	1.52	inactive
Lyset (lysosomal enzyme trafficking factor)	no change with or without drug	-0.45	0.17	inactive
Hmx1 (H6 homeobox 1)	no change with or without drug	1.12	-0.84	inactive
Cox19 (cytochrome c oxidase assembly protein 19)	low cell count with doxorubicin only	-2.14	-1.85	active
Gramd1c (GRAM domain containing 1C)	no change with or without drug	1.46	1.85	inactive
Exosc9 (exosome component 9)	no change with or without drug	0.9	0.51	inactive
Gpr152 (G protein-coupled receptor 152)	no change with or without drug	0.79	0.34	inactive
Or4c123 (olfactory receptor family 4 subfamily C member 123)	no change with or without drug	-0.22	0.34	inactive
Tmem63c (transmembrane protein 63c)	no change with or without drug	-0.67	-1.35	inactive
Edaradd (EDAR associated via death domain)	no change with or without drug	0	0.51	inactive
Wdr46 (WD repeat domain 46)	no change with or without drug	0	-0.84	inactive
Atrn (attractin)	no change with or without drug	-0.67	-0.84	inactive
Mtmr9 (myotubularin related protein 9)	high cell count with doxorubicin only	2.25	-0.67	inactive
Il9 (interleukin 9)	low cell count with doxorubicin only	-2.36	-1.85	active
Actr1a (ARP1 actin-related protein 1A, centractin alpha)	no change with or without drug	-1.12	0.51	inactive
Mdga2 (MAM domain containing glycosylphosphatidylinositol anchor 2)	no change with or without drug	-0.34	-0.84	inactive
Insig2 (insulin induced gene 2)	no change with or without drug	0.9	1.52	inactive
Doc2a (double C2, alpha)	no change with or without drug	-0.11	1.35	inactive
Slc17a8	no change with or without drug	-0.56	-0.51	inactive
Dusp10 (dual specificity phosphatase 10)	high cell count with doxorubicin only	2.02	0.67	inactive
Tpt1 (tumor protein, translationally-controlled 1)	no change with or without drug	1.46	0.34	inactive
Sprr2b (small proline-rich protein 2B)	no change with or without drug	0.22	0	inactive
Mras (muscle and microspikes RAS)	high cell count with doxorubicin only	2.02	-0.84	inactive
Bok (BCL2-related ovarian killer)	no change with or without drug	1.12	-0.67	inactive
Ushbp1 (USH1 protein network component harmonin binding protein 1)	no change with or without drug	-1.12	-0.67	inactive
Or51a43 (olfactory receptor family 51 subfamily A member 43)	no change with or without drug	1.35	1.35	inactive
Coq7 (demethyl-Q 7)	no change with or without drug	1.01	1.18	inactive
Tut7 (terminal uridylyl transferase 7)	no change with or without drug	1.69	1.52	inactive
Gdap10 (ganglioside-induced differentiation-associated-protein 10)	no change with or without drug	0.79	1.69	inactive
Tuba1c (tubulin, alpha 1C)	low cell count with and without drug	-2.02	-2.53	inactive
Zfp715 (zinc finger protein 715)	no change with or without drug	0	0.17	inactive
Ms4a6b (membrane-spanning 4-domains, subfamily A, member 6B)	no change with or without drug	0.9	-0.84	inactive
Gadd45b (growth arrest and DNA-damage-inducible 45 beta)	no change with or without drug	1.12	-0.17	inactive
D330038K10RIK	no change with or without drug	-1.12	-0.67	inactive
Hbb-b2 (hemoglobin, beta adult minor chain)	no change with or without drug	-0.22	1.18	inactive
Ier2 (immediate early response 2)	low cell count with doxorubicin only	-2.14	-1.18	active
Nek4 (NIMA (never in mitosis gene a)-related expressed kinase 4)	no change with or without drug	0.22	-0.51	inactive
Spata17 (spermatogenesis associated 17)	low cell count with doxorubicin only	-3.37	0.67	active
Atf4 (activating transcription factor 4)	low cell count with doxorubicin only	-2.47	-0.84	active
1810009J06Rik (RIKEN cDNA 1810009J06 gene)	low cell count with doxorubicin only	-2.7	-0.84	active
Arfgef1 (ARF guanine nucleotide exchange factor 1)	no change with or without drug	0.79	-0.17	inactive
Ate1 (arginyltransferase 1)	no change with or without drug	0.45	-0.17	inactive
Atad3aos (ATPase family, AAA domain containing 3A, opposite strand)	no change with or without drug	0.9	0.84	inactive
Kif6 (kinesin family member 6)	no change with or without drug	-1.24	-0.84	inactive
Srp9 (signal recognition particle 9)	no change with or without drug	-1.57	-0.17	inactive
Pwp2 (PWP2 periodic tryptophan protein homolog (yeast))	no change with or without drug	-1.35	-1.69	inactive
Capn12 (calpain 12)	no change with or without drug	0	-0.17	inactive
Pcid2 (PCI domain containing 2)	no change with or without drug	0.9	0.51	inactive
Gab3 (growth factor receptor bound protein 2-associated protein 3)	no change with or without drug	0.34	0.51	inactive
Nckap1 (NCK-associated protein 1)	low cell count without drug only	0.45	-2.02	inactive
Glg1 (golgi apparatus protein 1)	no change with or without drug	0.22	-1.18	inactive
Cdc14a (CDC14 cell division cycle 14A)	no change with or without drug	-1.35	-0.51	inactive
Fes (Fes proto-oncogene, tyrosine kinase)	no change with or without drug	-1.12	0.34	inactive
Imp4 (IMP4, U3 small nucleolar ribonucleoprotein)	no change with or without drug	-0.67	1.69	inactive
Rpusd2 (RNA pseudouridylate synthase domain containing 2)	no change with or without drug	0.9	-0.34	inactive
Mrgprx3-ps (MAS-related GPR, member X3, pseudogene)	no change with or without drug	-1.8	0.34	inactive
Nalf1 (NALCN channel auxiliary factor 1)	no change with or without drug	-0.45	0	inactive
Tpcn2 (two pore segment channel 2)	no change with or without drug	-0.45	-1.18	inactive
Usp39 (ubiquitin specific peptidase 39)	no change with or without drug	-1.57	-1.35	inactive
Eif4e2 (eukaryotic translation initiation factor 4E member 2)	no change with or without drug	-1.12	0.51	inactive
